In the supplement of paper PMC6411743:
± gives the standard deviation of the averaged measurements. The list shows a part of the results.

The chains behind the UniProt entries cited, without tags or fusion partners. Where a name states a change or a piece, a line headed by the entry shows the natural chain unless it says otherwise.
UniProt Q99504: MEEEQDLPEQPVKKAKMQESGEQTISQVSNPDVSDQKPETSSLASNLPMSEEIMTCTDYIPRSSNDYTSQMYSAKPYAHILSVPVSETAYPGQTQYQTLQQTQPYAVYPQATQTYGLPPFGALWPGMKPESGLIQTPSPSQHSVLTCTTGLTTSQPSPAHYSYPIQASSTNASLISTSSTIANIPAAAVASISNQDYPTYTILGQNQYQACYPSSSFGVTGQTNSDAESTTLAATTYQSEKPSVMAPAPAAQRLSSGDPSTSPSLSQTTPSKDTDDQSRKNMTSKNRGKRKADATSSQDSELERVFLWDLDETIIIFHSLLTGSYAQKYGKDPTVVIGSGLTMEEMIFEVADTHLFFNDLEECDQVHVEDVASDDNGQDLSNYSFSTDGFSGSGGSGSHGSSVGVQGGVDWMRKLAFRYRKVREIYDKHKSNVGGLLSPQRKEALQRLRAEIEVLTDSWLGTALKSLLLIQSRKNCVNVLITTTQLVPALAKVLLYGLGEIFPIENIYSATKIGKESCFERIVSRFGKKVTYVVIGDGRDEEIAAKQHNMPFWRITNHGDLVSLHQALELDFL
UniProt Q99832: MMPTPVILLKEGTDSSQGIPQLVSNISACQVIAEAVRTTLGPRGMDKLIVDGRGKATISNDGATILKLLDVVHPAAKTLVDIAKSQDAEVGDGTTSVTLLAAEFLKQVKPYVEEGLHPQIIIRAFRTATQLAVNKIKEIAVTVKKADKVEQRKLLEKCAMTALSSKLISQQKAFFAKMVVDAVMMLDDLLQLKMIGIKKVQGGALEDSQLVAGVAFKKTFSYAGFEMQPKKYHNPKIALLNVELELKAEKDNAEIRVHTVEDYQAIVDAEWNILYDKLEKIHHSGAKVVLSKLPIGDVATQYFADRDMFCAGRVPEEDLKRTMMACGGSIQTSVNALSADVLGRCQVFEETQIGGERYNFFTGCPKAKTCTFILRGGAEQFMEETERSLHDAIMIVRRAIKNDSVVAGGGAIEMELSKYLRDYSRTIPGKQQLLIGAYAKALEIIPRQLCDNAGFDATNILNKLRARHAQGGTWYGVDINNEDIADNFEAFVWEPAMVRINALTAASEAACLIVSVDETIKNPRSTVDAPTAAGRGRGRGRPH
UniProt Q9BY49: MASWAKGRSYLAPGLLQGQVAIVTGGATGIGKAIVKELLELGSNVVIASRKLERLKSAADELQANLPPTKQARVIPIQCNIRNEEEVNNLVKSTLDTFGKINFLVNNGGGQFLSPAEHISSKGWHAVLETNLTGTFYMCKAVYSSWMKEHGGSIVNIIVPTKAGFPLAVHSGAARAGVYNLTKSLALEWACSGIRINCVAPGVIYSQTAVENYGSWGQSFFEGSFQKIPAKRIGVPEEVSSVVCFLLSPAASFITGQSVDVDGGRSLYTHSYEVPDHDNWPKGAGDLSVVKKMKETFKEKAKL
UniProt Q9BU02: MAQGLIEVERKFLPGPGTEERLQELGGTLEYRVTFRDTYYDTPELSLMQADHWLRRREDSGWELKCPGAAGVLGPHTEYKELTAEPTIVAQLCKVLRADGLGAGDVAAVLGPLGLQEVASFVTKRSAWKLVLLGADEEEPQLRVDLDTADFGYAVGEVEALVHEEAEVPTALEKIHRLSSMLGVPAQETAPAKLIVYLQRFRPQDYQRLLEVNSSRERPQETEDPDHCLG
UniProt Q96RS6: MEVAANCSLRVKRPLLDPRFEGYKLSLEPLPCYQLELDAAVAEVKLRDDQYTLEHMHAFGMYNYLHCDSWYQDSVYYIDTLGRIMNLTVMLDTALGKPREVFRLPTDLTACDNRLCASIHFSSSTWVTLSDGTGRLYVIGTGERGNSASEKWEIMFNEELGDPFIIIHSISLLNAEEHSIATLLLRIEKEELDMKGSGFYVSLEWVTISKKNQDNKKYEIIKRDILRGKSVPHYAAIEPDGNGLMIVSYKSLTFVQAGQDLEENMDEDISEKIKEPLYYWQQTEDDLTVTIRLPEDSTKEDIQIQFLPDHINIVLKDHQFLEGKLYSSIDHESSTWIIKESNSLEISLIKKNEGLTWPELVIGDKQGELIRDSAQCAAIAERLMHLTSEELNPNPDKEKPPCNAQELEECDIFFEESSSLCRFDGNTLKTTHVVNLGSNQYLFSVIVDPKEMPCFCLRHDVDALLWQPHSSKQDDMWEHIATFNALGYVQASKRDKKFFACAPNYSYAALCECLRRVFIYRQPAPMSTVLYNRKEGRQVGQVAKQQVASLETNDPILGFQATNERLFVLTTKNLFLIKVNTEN

Compound: Nc1nc2c(ncn2[C@@H]2O[C@H](COP(=O)(O)OP(=O)(O)OP(=O)(O)O)[C@@H](O)[C@H]2O)c(=O)[nH]1 [guanosine triphosphate]
Assay: NP40-soluble protein abundance relative to vehicle (solubility fold change) (ratio); higher = more soluble protein in presence of GTP
Method: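 Solubility proteome profiling in Jurkat crude lysate. Lysate was treated with Mg-GTP (0.1-10 mM) for 10 min at room temperature and 3 min at 37 °C, then solubilised with 0.8% NP40 and benzonase, followed by ultracentrifugation. Proteins were quantified by TMT10 LC-MS/MS; the value is the NP40-soluble abundance relative to the NP40-processed vehicle, from 3 independent experiments.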

Row | Target | NP40-soluble protein abundance (concentration: 0.1mM) | NP40-soluble protein abundance (concentration: 0.5mM) | NP40-soluble protein abundance (concentration: 1mM) | NP40-soluble protein abundance (concentration: 2mM) | NP40-soluble protein abundance (concentration: 4mM) | NP40-soluble protein abundance (concentration: 6mM) | NP40-soluble protein abundance (concentration: 8mM) | NP40-soluble protein abundance (concentration: 10mM)
1 | UniProt Q99504 and related entries | 1 ± 0.067 | 1.01 ± 0.024 | 0.982 ± 0.035 | 0.969 ± 0.063 | 0.949 ± 0.078 | 0.958 ± 0.03 | 0.944 ± 0.053 | 0.929 ± 0.037
2 | CCT7 (UniProt Q99832) | 1.04 ± 0.034 | 1.11 ± 0.12 | 1.09 ± 0.13 | 1.09 ± 0.21 | 1.1 ± 0.21 | 1.08 ± 0.23 | 1.06 ± 0.19 | 0.998 ± 0.2
3 | PECR (UniProt Q9BY49) | 1.03 ± 0.06 | 1.01 ± 0.068 | 1.02 ± 0.067 | 1.03 ± 0.12 | 1.05 ± 0.03 | 1.13 ± 0.049 | 1.08 ± 0.045 | 1.02 ± 0.058
4 | UniProt Q9BU02 and related entries | 0.959 ± 0.03 | 0.953 ± 0.061 | 0.994 ± 0.054 | 1.02 ± 0.072 | 0.9806 ± 0.0068 | 1 ± 0.021 | 0.983 ± 0.1 | 0.98 ± 0.051
5 | UniProt Q96RS6 and related entries | 1.12 ± 0.12 | 1.11 ± 0.14 | 1.01 ± 0.1 | 0.999 ± 0.15 | 1 ± 0.15 | 0.979 ± 0.1 | 0.94 ± 0.044 | 0.894 ± 0.11
